Experimental data: PubChem BioAssay AID504784 (Drosophila RNAi Screening Center, 2011)
In all, the deposit lists about 17,000 reagents; this is a random part of those with a known target gene and a result. 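Each column is one replicate's B-score; the combined score over replicates was not deposited, so single values may mislead.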

Assay: 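Fly genes whose silencing alters how much lipid cells keep in droplets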 (primary screen)
Cells: Drosophila Kc167 embryonic cells
Reagents: long dsRNA against Drosophila genes, about 250 ng dsRNA per well
Time to read-out: 4 days
Conditions: cells fed 400 µM oleic acid bound to BSA
Read-out: 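Microscope images give a droplet-to-nucleus area ratio, taken as log and converted to a screen-wide B-score; higher values mean greater lipid storage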
Direction: droplet/nuclear area B-score: higher = more stored lipid (overstorage)

gene | dsRNA | droplet/nuclear area B-score, replicate 1 | droplet/nuclear area B-score, replicate 2 | droplet/nuclear area B-score, replicate 3
GstE6 (GeneID 37111) | DRSC06676 | -1.67 | -0.8 | –
CG34309 (GeneID 5740636) | DRSC14838 | -0.319 | 0.511 | –
BomT2 (GeneID 50208) | DRSC06631 | 0.0868 | -0.364 | –
CG2930 (GeneID 31341) | DRSC17730 | 2.19 | – | –
twz (GeneID 37456) | DRSC04069 | 0.601 | -0.613 | –
CG4752 (GeneID 37569) | DRSC04486 | -0.332 | -1.27 | –
CG5665 (GeneID 40243) | DRSC11783 | -1.28 | -1.14 | –
CG6833 (GeneID 39559) | DRSC10721 | -1.67 | -3.51 | 0.0506
CG5641 (GeneID 41529) | DRSC15852 | -0.163 | 6.98 | –
CG8089 (GeneID 36679) | DRSC07074 | -0.251 | 1.43 | –
AstC (GeneID 34537) | DRSC02403 | -1.3 | 0.489 | –
Acp26Ab (GeneID 33816) | DRSC01856 | 0.181 | -1.8 | –
Poxm (GeneID 40990) | DRSC16793 | 0.23 | 1.87 | 0.00297
Poxm (GeneID 40990) | DRSC22839 | -0.449 | -0.635 | –
Ca-beta (GeneID 34557) | DRSC02406 | 0.789 | 0.389 | –
Ca-beta (GeneID 34557) | DRSC02407 | -2.55 | -3.71 | –
Ca-beta (GeneID 34557) | DRSC03285 | 0.423 | -1.98 | 0.655
Ca-beta (GeneID 34557) | DRSC21432 | 0.00418 | -2.97 | –
CG1314 (GeneID 33066) | DRSC20495 | 0.226 | -1.85 | –
Socs36E (GeneID 35085) | DRSC02455 | -0.717 | 0.242 | -0.57
ATP6AP2 (GeneID 41104) | DRSC16420 | -1.1 | -0.212 | –
CG10311 (GeneID 41984) | DRSC14228 | -1.39 | 0.16 | –
gom (GeneID 43934) | DRSC04690 | -1.15 | 0.0777 | –
Nopp140 (GeneID 40433) | DRSC11872 | -0.0743 | 2.01 | –
dgt4 (GeneID 31361) | DRSC18659 | -0.723 | 0.56 | –
Girdin (GeneID 38385) | DRSC08292 | -0.0873 | 1.15 | –
Or59c (GeneID 37716) | DRSC04633 | 0.464 | 0.895 | –
PPO1 (GeneID 37044) | DRSC05929 | -0.461 | -0.325 | –

Next part (8 carried over from the part before).
gene | dsRNA | droplet/nuclear area B-score, replicate 1 | droplet/nuclear area B-score, replicate 2 | droplet/nuclear area B-score, replicate 3
ATP6AP2 (GeneID 41104) | DRSC16420 | -1.1 | -0.212 | –
CG10311 (GeneID 41984) | DRSC14228 | -1.39 | 0.16 | –
gom (GeneID 43934) | DRSC04690 | -1.15 | 0.0777 | –
Nopp140 (GeneID 40433) | DRSC11872 | -0.0743 | 2.01 | –
dgt4 (GeneID 31361) | DRSC18659 | -0.723 | 0.56 | –
Girdin (GeneID 38385) | DRSC08292 | -0.0873 | 1.15 | –
Or59c (GeneID 37716) | DRSC04633 | 0.464 | 0.895 | –
PPO1 (GeneID 37044) | DRSC05929 | -0.461 | -0.325 | –
CG17780 (GeneID 42914) | DRSC15265 | -0.0676 | 1.06 | –
CG14556 (GeneID 43176) | DRSC14899 | – | 0.939 | –
CG12310 (GeneID 39634) | DRSC09878 | -0.674 | -0.372 | –
CG40282 (retired record) (GeneID 3355140) | DRSC07814 | 0.401 | -1.15 | –
mtd (GeneID 45467) | DRSC12131 | -2.75 | -0.998 | –
mtd (GeneID 45467) | DRSC12380 | -1.69 | -0.492 | –
mtd (GeneID 45467) | DRSC12381 | 2.51 | -0.524 | –
robl22E (GeneID 33412) | DRSC00289 | -0.589 | 0.83 | –
CG1637 (GeneID 32019) | DRSC18865 | 0.177 | 0.267 | –
CG1637 (GeneID 32019) | DRSC19748 | 0.575 | -0.0442 | 0.187
CG1637 (GeneID 32019) | DRSC19749 | 0.226 | 0.427 | 0.00732
Pez (GeneID 33882) | DRSC03397 | -2.05 | -0.762 | –
I-3 (GeneID 33068) | DRSC20479 | 0.251 | 0.854 | –
CG30428 (GeneID 246608) | DRSC04041 | -0.88 | 0.664 | –
CG31955 (GeneID 319045) | DRSC00285 | 0.489 | -1.19 | –
CG15877 (GeneID 38304) | DRSC08485 | -0.929 | 0.0834 | –
NimB2 (GeneID 260645) | DRSC22645 | -0.714 | 2.48 | –
Rbp (GeneID 41880) | DRSC15724 | 3.81 | 2.89 | –
Rbp (GeneID 41880) | DRSC15726 | 3.9 | 1.73 | –
CG12420 (GeneID 41249) | DRSC14514 | 0.0274 | -0.19 | 1.65
ATP8B (GeneID 41469) | DRSC14961 | -0.0931 | 0.696 | –
CG15701 (GeneID 36801) | DRSC06572 | -0.458 | – | –
CG15093 (GeneID 37166) | DRSC06522 | -0.382 | – | –
cerv (GeneID 32492) | DRSC19681 | 0.918 | -1.03 | –
Elba1 (GeneID 33669) | DRSC00276 | -0.322 | -1.27 | –
CG18469 (GeneID 36943) | DRSC21838 | -1.41 | 0.0796 | –
TAF1B (GeneID 41242) | DRSC16001 | 0.305 | -1 | –
Trmt61 (GeneID 43170) | DRSC14888 | -1.23 | -1.26 | –
